According to doi:10.1101/2025.04.12.648552:
These are yes or no findings as the source states them, for the method shown. Binding seen in cells or lysates may run through a third protein. Some entries that bind do so weakly or less than the wild type.

Protein sequences, listed by entry. Tags and fused reporters are not part of them.
UniProt Q07243: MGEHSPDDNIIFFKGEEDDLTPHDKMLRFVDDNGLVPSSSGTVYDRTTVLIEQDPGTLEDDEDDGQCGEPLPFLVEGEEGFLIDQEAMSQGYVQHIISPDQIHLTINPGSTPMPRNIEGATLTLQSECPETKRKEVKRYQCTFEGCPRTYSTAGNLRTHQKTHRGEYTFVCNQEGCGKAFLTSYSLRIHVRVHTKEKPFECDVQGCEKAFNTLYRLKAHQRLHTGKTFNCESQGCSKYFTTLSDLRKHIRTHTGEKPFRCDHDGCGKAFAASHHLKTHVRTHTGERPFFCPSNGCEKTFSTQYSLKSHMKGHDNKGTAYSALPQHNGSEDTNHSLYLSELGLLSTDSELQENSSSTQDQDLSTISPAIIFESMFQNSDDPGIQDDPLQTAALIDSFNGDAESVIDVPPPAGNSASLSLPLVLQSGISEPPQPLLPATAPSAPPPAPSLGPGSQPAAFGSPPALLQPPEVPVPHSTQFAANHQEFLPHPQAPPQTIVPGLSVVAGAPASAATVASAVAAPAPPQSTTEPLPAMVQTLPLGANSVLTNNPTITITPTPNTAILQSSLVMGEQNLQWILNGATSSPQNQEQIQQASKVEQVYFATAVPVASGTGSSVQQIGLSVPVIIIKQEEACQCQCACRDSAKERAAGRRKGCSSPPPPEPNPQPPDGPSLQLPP
UniProt Q8BSQ9: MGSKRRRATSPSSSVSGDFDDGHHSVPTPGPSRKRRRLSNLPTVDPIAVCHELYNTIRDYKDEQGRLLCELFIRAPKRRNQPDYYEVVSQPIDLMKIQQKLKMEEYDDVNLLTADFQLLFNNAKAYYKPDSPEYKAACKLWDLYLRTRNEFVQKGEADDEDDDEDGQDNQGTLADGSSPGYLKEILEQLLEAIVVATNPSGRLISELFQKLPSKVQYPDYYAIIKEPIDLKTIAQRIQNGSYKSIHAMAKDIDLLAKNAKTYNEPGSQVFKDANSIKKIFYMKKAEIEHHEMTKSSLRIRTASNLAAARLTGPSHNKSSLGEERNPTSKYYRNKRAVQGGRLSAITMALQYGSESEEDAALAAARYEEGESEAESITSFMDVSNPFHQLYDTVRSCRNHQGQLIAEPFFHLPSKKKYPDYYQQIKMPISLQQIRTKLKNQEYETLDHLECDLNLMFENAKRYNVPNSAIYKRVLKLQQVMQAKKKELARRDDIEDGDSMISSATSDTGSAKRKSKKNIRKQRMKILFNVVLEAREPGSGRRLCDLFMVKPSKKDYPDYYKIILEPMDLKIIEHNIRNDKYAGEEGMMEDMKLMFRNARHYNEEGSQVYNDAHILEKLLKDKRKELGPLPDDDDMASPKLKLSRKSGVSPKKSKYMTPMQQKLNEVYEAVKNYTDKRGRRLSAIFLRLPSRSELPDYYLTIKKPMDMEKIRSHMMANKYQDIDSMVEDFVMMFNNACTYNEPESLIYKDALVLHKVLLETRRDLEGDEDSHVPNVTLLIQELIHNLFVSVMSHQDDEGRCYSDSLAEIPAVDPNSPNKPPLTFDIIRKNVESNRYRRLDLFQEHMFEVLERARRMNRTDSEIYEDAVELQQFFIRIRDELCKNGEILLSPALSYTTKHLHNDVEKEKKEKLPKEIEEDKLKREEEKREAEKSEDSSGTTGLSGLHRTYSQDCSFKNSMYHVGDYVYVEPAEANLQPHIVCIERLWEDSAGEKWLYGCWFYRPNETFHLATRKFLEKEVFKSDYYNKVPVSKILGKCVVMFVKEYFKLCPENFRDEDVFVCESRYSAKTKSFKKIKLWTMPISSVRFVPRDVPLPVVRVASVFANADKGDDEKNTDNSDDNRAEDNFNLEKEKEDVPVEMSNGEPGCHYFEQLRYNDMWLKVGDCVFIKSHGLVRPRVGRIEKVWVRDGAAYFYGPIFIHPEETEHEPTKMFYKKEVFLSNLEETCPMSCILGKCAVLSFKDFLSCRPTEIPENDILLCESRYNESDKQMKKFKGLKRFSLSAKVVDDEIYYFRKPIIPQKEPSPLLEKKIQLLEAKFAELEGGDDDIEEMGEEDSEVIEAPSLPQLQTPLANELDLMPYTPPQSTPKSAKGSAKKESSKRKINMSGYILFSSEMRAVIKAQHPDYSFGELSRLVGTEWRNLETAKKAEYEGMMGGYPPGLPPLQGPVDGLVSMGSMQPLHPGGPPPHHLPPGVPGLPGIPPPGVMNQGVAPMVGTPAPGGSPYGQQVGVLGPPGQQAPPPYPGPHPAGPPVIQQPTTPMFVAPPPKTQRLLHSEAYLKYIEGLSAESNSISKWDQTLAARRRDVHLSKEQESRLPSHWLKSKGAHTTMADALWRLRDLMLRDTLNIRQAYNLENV

Target: Mtf1 (metal-responsive transcription factor) (mouse (endogenous in C2C12)) (UniProt Q07243)
Test: co-IP

binding: binds
Substance: Baf180 (PBAF-specific SWI/SNF subunit) (from UniProt Q8BSQ9 1-1634)
